Source: the supplement of paper PMC10849652
The list shows a part of the results.

Protein sequences, listed by entry. Tags and fused reporters are not part of them. Lines headed by an entry give the natural chain unless they say otherwise; changes in a name come on top.
UniProt Q8TEQ6: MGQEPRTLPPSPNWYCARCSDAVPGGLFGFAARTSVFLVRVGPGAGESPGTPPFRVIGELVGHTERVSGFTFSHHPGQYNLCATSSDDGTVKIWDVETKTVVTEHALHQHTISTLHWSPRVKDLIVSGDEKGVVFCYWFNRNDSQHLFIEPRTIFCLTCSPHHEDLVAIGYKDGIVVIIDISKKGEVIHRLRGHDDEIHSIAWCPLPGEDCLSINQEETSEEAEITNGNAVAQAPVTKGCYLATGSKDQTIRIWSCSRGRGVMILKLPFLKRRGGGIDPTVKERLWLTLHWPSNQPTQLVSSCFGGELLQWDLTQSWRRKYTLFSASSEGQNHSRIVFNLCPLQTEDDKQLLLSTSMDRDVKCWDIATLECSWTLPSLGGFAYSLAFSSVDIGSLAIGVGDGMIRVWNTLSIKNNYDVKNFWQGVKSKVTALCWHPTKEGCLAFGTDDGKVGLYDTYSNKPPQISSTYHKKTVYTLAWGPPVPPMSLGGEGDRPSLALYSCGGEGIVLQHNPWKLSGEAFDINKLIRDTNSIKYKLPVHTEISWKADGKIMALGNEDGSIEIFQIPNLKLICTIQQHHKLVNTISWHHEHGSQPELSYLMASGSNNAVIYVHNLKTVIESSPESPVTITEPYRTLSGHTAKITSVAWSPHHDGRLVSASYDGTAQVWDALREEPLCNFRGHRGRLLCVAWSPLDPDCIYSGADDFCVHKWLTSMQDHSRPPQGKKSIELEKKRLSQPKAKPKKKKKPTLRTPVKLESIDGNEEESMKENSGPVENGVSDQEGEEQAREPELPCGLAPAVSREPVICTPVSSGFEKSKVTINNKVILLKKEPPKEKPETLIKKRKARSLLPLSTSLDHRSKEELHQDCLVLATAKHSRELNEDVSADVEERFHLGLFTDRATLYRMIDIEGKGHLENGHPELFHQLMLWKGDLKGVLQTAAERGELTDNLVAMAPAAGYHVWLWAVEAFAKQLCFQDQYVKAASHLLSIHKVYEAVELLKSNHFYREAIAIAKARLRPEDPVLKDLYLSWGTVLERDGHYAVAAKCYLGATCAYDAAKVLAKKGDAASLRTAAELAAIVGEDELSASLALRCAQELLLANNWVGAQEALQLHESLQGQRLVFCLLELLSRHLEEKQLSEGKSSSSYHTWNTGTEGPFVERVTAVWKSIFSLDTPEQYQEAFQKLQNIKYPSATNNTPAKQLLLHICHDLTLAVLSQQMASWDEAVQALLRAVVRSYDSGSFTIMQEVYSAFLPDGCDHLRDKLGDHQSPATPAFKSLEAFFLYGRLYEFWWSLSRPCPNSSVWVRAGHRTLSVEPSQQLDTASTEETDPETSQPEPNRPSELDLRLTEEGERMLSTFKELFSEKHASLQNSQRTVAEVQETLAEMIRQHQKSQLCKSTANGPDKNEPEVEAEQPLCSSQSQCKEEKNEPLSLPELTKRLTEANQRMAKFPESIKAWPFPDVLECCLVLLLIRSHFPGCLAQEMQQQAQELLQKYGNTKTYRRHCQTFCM
UniProt Q01415: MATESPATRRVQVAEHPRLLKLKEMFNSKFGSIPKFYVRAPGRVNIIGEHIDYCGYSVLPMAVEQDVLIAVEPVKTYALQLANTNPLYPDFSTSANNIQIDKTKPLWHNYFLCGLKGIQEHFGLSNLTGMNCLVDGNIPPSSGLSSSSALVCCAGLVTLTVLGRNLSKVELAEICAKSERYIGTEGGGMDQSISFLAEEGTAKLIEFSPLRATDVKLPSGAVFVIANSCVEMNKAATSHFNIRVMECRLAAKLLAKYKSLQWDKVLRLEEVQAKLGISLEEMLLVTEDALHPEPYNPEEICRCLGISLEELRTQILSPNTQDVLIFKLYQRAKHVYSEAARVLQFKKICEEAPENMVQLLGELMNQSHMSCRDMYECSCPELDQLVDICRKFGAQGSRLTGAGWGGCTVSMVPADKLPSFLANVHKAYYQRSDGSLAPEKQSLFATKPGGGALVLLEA
UniProt Q7L5D6: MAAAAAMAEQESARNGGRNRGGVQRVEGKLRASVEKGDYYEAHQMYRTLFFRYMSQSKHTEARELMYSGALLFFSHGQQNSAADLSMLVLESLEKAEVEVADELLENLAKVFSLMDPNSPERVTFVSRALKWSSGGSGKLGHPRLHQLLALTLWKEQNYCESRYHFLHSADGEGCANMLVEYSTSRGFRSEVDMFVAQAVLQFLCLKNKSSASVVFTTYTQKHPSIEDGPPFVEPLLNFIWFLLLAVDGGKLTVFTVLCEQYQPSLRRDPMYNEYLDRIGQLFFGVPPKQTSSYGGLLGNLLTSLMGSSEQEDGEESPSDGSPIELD
UniProt P36268: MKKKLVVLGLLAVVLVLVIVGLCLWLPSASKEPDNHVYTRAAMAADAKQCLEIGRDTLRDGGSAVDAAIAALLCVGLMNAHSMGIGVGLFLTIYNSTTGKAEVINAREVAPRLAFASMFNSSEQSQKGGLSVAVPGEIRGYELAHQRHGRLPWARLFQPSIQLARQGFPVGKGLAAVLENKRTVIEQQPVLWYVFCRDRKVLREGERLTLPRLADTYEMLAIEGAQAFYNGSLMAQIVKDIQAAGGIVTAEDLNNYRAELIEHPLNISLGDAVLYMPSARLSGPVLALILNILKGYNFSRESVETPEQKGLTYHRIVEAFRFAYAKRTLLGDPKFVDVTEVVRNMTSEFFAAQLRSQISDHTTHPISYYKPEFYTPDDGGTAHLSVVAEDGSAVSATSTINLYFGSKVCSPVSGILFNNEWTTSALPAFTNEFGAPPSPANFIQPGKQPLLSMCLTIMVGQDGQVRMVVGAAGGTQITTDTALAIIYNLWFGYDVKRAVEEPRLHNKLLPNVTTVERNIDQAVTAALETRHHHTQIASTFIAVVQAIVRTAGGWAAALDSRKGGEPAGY
UniProt P0CL80: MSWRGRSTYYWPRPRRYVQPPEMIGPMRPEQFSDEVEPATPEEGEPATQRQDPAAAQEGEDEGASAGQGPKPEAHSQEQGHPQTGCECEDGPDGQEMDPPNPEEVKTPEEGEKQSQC
UniProt Q9BQS8: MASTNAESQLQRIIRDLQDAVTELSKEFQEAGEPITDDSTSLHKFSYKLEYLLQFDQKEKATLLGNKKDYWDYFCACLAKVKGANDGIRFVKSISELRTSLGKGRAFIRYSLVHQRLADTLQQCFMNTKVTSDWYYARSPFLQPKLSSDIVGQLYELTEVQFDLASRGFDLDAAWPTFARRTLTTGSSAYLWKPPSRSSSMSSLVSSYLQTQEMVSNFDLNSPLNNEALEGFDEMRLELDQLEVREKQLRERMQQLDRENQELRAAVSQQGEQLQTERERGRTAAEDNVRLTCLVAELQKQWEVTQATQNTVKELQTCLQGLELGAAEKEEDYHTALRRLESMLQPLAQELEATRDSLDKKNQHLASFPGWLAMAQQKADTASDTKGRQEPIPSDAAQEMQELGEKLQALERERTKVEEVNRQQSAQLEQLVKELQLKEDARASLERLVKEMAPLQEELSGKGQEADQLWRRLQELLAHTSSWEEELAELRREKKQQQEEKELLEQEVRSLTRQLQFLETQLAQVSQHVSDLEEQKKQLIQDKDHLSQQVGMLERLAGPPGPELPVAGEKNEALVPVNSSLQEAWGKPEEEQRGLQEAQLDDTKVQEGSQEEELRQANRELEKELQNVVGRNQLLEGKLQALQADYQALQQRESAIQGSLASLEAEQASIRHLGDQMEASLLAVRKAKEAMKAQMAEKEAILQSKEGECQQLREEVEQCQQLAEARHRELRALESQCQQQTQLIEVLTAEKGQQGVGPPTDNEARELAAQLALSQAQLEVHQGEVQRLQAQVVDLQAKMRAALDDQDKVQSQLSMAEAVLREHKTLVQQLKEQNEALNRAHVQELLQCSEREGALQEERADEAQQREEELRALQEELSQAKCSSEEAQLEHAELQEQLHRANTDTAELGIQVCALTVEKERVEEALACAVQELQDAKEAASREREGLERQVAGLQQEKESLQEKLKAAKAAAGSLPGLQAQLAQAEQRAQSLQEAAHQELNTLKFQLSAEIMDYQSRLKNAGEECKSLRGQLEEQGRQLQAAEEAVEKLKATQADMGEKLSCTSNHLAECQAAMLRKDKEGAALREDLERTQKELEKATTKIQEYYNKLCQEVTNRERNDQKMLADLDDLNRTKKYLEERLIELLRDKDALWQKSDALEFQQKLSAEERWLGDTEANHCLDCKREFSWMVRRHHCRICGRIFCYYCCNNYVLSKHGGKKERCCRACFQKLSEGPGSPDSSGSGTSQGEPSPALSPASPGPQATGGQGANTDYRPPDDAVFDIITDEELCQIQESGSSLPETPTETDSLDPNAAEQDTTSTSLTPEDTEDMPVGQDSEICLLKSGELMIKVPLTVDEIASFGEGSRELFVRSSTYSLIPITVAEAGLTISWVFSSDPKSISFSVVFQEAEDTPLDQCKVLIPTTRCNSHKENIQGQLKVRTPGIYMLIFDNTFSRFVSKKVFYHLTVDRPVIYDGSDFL
UniProt P51114, whole entry, looked up: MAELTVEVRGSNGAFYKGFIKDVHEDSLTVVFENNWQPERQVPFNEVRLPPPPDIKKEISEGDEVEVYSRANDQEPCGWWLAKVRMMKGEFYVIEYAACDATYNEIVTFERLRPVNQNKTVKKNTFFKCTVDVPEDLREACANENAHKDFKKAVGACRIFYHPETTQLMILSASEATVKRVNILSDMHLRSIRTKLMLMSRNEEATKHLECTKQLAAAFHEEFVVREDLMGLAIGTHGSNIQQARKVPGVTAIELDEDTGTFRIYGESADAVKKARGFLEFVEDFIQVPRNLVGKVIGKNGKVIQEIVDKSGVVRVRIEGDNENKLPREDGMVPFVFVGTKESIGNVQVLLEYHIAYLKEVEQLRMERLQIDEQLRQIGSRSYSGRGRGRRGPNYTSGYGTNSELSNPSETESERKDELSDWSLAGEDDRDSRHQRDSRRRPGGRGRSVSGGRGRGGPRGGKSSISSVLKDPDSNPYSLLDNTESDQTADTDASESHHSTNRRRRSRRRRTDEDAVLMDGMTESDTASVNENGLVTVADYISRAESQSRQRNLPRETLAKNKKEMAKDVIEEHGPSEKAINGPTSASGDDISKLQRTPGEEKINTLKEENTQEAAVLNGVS
UniProt P02774: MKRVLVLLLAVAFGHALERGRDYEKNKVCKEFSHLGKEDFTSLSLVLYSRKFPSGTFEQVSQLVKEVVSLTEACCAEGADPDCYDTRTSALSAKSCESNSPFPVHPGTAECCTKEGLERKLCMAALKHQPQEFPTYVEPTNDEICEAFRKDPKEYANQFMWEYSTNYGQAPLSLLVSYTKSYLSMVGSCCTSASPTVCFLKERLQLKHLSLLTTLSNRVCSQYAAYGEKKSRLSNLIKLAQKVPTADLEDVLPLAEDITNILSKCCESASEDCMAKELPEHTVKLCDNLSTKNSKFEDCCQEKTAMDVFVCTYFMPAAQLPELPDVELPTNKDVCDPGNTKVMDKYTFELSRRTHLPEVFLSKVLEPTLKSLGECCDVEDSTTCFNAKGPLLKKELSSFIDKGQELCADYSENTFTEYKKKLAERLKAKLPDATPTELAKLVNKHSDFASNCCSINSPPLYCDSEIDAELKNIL
UniProt Q9NY12: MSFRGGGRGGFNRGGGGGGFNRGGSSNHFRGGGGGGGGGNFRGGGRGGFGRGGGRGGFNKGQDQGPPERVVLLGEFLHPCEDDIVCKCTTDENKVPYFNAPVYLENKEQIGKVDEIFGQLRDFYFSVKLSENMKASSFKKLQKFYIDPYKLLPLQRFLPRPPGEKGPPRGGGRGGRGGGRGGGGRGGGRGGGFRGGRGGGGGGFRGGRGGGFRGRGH
UniProt P35637: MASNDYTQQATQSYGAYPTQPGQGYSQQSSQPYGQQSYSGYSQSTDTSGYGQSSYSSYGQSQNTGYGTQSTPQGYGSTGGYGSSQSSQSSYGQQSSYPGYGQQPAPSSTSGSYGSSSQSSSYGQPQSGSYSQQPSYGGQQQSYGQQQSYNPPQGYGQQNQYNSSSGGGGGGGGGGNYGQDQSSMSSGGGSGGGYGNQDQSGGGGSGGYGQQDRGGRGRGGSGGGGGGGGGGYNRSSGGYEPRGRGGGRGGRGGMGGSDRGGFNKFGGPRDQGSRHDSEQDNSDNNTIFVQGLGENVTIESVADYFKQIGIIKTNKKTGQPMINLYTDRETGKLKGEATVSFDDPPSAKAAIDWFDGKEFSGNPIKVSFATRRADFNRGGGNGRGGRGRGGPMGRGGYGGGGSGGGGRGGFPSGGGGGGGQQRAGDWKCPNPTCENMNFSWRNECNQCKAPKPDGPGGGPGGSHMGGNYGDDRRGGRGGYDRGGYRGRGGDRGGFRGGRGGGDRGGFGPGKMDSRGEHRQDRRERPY

Key:
Assay in all cases: log2 fold change, soluble protein after heating vs DMSO (PISA); higher = thermal stabilisation; K562 cells, 10 uM, 30 min; active = over 0.2 and 3.5 SD of the protein, either way, in both replicates (recomputed)
[1] = compound: C1=CC=C(C=C1)[C@H](COC2=CC3=C(C=C2)NC(=O)N3)NC(=O)C4=CC=CN(C4=O)CC5=CC(=C(C=C5)F)F
Summary of the method: (§1)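 K562 cells at 2×10^6 cells/mL were exposed to 10 μM compound for 30 min, then aliquots were heated for 3 min across 48°C-58°C, pooled, and extracted in PBS containing 0.5% NP-40 at 4°C. The supernatant after 21,000xg for 90 min was taken as soluble protein and measured by TMTpro 16plex LC-MS/MS with channel sums equalised. Thermal stability is reported relative to control samples, with values from duplicates. Fold changes are given on a log2 scale.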

[2] = compound: CC1=C(SC2=C1C(=N[C@H](C3=NN=C(N32)C)CC(=O)N)C4=CC=C(C=C4)Cl)C
Summary of the method: as §1

[3] = compound: CC1=C2C(=CC=C1)N=C(N(C2=O)C3=CC=CC=C3C)CN4C=NC5=C(N=CN=C54)N
Summary of the method: as §1

[4] = compound: Cc1sc2c(c1C)C(c1ccc(Cl)cc1)=N[C@@H](CC(=O)OC(C)(C)C)c1nnc(C)n1-2
Summary of the method: as §1

[5] = compound: c1ccc([C@@H]2C[C@H]2NC2CCNCC2)cc1
Summary of the method: as §1

Measured: log2 fold change

G3BP2 (UniProt Q9UN86)
inactive: [1] 0.058 | [2] -0.262 | [3] -0.256 | [4] 0.257 | [5] 0.042

GEMIN5 (UniProt Q8TEQ6)
inactive: [1] -0.004 | [2] -0.019 | [3] 0.022 | [4] 0.021 | [5] 0.005

GALNS (UniProt P34059)
inactive: [1] -0.009 | [2] 0.018 | [3] 0.009 | [4] -0.049 | [5] -0.064

FTSJ1 (UniProt Q9UET6)
inactive: [1] -0.033 | [2] 0.06 | [3] 0.024 | [4] -0.016 | [5] -0.035

GANAB isoform 2 (UniProt Q14697)
inactive: [1] 0.032 | [2] 0.004 | [3] -0.011 | [4] -0.013 | [5] -0.009

GALE (UniProt Q14376)
inactive: [1] 0.024 | [2] 0.035 | [3] 0.038 | [4] -0.03 | [5] -0.02

GALK2 (UniProt Q01415)
inactive: [1] -0.007 | [2] 0.041 | [3] 0.04 | [4] -0.031 | [5] -0.013

GET4 (UniProt Q7L5D6)
inactive: [1] 0.008 | [2] 0.003 | [3] 0.054 | [4] 0.014 | [5] -0.068

FUCA2 (UniProt Q9BTY2)
inactive: [1] 0.055 | [2] -0.004 | [3] 0.005 | [4] 0.034 | [5] 0.006

GEMIN4 (UniProt P57678)
inactive: [1] 0.222 | [2] -0.379 | [3] -0.403 | [4] 0.174 | [5] -0.003

GGT2 isoform 3 (UniProt P36268)
inactive: [1] 0.015 | [2] -0.002 | [3] 0.021 | [4] 0.107 | [5] 0.076

GAGE12F (UniProt P0CL80)
inactive: [1] -0.016 | [2] 0.137 | [3] 0.109 | [4] -0.089 | [5] 0.012

FYCO1 isoform 4 (UniProt Q9BQS8)
inactive: [1] 0 | [2] -0.021 | [3] 0.017 | [4] -0.012 | [5] 0.045

GCC2 (UniProt Q8IWJ2)
inactive: [1] -0.027 | [2] -0.116 | [3] 0.004 | [4] 0.066 | [5] -0.059

FUBP3 (UniProt Q96I24)
inactive: [1] 0.009 | [2] 0.002 | [3] 0.017 | [4] 0.065 | [5] 0.006

FXR1 (UniProt P51114)
inactive: [1] 0.022 | [2] -0.218 | [3] -0.05 | [4] 0.207 | [5] 0

FOXJ3 (UniProt Q9UPW0)
inactive: [1] -0.007 | [2] 0.069 | [3] -0.115 | [4] -0.032 | [5] 0.08

GC isoform 3 (UniProt P02774)
inactive: [1] -0.112 | [2] 0.101 | [3] -0.149 | [4] 0.022 | [5] 0.073

GALNT11 (UniProt Q8NCW6)
inactive: [1] -0.027 | [2] 0.096 | [3] 0.093 | [4] -0.097 | [5] -0.027

Pulled one by one from above (2):
GALNT11 (UniProt Q8NCW6)
inactive: [1] -0.027 | [2] 0.096 | [3] 0.093 | [4] -0.097 | [5] -0.027

FOXJ3 (UniProt Q9UPW0)
inactive: [1] -0.007 | [2] 0.069 | [3] -0.115 | [4] -0.032 | [5] 0.08

Remaining list, next part

GAR1 (UniProt Q9NY12)
inactive: [1] 0.047 | [2] -0.139 | [3] -0.137 | [4] 0.147 | [5] 0

GDI2 (UniProt Q5SX86)
inactive: [1] -0.082

GFPT1 (UniProt Q06210)
inactive: [1] 0.02 | [2] 0.032 | [3] 0.003 | [4] 0.004 | [5] -0.018

GALNT5 (UniProt Q7Z7M9)
inactive: [1] 0.022 | [2] 0.034 | [3] 0.074 | [4] 0.025 | [5] -0.044

GFM2 (UniProt Q969S9)
inactive: [1] 0.068

FUS (UniProt P35637)
inactive: [1] 0.047 | [2] -0.098 | [3] -0.205 | [4] 0.11 | [5] 0.096

GCLC (UniProt P48506)
inactive: [1] -0.041 | [2] 0.038 | [3] 0.072 | [4] -0.053 | [5] -0.009
